This is one part of the list.

The chains behind the UniProt entries cited, without tags or fusion partners.
UniProt Q0JBA9, entry or part of it: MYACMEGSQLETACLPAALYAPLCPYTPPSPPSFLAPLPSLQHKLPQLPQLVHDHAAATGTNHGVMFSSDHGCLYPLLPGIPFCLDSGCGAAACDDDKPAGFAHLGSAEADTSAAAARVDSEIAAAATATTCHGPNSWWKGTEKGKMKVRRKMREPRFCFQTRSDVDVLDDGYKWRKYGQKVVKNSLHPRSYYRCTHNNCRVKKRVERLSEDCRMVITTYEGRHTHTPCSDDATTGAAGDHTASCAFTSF

In this experiment the target is OsWRKY34 (Oryza sativa, UniProt Q0JBA9 1-250). Put plainly: protein-binding microarray (RPBM); PBS, 2% BSA, 51.3 ng/ul salmon testes DNA, 50 uM zinc acetate, 200 nM TF, 25 C, 1 h; high values mean tight binding. To be noted: protein: recombinant; tags: N-terminal polyhistidine and DsRed monomer fusion (pET32a); label: CyDye5-dUTP incorporated in the synthesized complementary strand; 3' TTTTT single-stranded linker to array surface; dsDNA, one strand shown. In outline:
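Binding signal is defined as the fluorescence intensity of each feature in arbitrary units, read on an Axon 4000B scanner. Transcription factors with N-terminal polyhistidine and DsRed fusions came from E. coli BL21-CodonPlus and were purified on Ni–NTA. They were incubated at 200 nM for 1 h at 25 °C on a custom Agilent array that had been made double-stranded with Cy5-dUTP, with 50 µM zinc acetate present, and the array was washed.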
As to “AACCGATAAGACCATGGATACGTTGCCGGGGCCCAAATACCGGAGTCACCTAGTGCAG”, the binding signal was 8210 fluorescence intensity (a.u.). With “ATTTTACTATAAATACTTATATTTTGGCCTTTTTCTTTTACGGAGTCACCTAGTGCAG”, the binding signal was 9480 fluorescence intensity (a.u.). With “CGACGCGCCATCGCCTCGCCTCTCACCTACTGCCTCGTCCCGGAGTCACCTAGTGCAG”, the binding signal is 8820 fluorescence intensity (a.u.). Take “TTTGCCGTTCGTCTTTGCATTGCAGGTTTTTCTCTGAACCCGGAGTCACCTAGTGCAG”: the binding signal was 8150 fluorescence intensity (a.u.). “TACCTCTTTTGCACTATGGACCACCCTTTTTTCATCTCTCCGGAGTCACCTAGTGCAG”: the binding signal is 13500 fluorescence intensity (a.u.).

In the case of “CCAGAAGACTAGCTAACCTATTCCTTTTGATTGTTGAATTCGGAGTCACCTAGTGCAG”, the binding signal is 9210 fluorescence intensity (a.u.).

Turning to “TTCGCTAGCTCCTGATTCGGCCATGGCGGGGTGTATTGTTCGGAGTCACCTAGTGCAG”, the binding signal is 9220 fluorescence intensity (a.u.).

For “GCCTACTACTACTCTTCTATATCACCTGATAATGCCCAAACGGAGTCACCTAGTGCAG”, the binding signal was 8280 fluorescence intensity (a.u.).

Regarding “GACAAACCTAATACTAACCCGCTCGTGTTCTTTGCTTCTCCGGAGTCACCTAGTGCAG”, the binding signal was 8650 fluorescence intensity (a.u.). The result for “ATACACAAAAATAGTTTTTTATTAGCTTTCTTTCATTTTCCGGAGTCACCTAGTGCAG” reads 8300 fluorescence intensity (a.u.). As to “ACAGACACAACATTTTTCCTGCCAGCATCATCACACAAGCCGGAGTCACCTAGTGCAG”, the binding signal is 9280 fluorescence intensity (a.u.).

On to “CAGGGGTAGAGGCTGCTTTTGGATTTGTACTACACTAAAACGGAGTCACCTAGTGCAG”, for which the binding signal was 9160 fluorescence intensity (a.u.). As to “AAACAGTTTGACTTTGACTAAAGTTAAAACGTCTTATAACCGGAGTCACCTAGTGCAG”, the binding signal is 10900 fluorescence intensity (a.u.). Consider “CCCTTTGCAAAATGTCTACCTAGCCTAACACTTTGACCTGCGGAGTCACCTAGTGCAG”, for which the binding signal was 9810 fluorescence intensity (a.u.).

Turning to “ATCTACTATTTGCATATCTTATCAGTTGCAGGATCAAACTCGGAGTCACCTAGTGCAG”, the binding signal is 8120 fluorescence intensity (a.u.).

For the sequence “AAACTTGACTTTTATTCGAATCACGCGTAACTCCTGACATCGGAGTCACCTAGTGCAG”, the binding signal is 9490 fluorescence intensity (a.u.).

For “AAACAGGACGCTACTACGGCATACACACTTCAGTCACTCGCGGAGTCACCTAGTGCAG”, the binding signal was 8230 fluorescence intensity (a.u.). Turning to “TTCTTTTGTGCTGTCTTGATATCGATATGATCTGCTTATACGGAGTCACCTAGTGCAG”, the binding signal is 8900 fluorescence intensity (a.u.). The result for “GAAAGAAATCTCGCTCTCGCCTCCTCGCCACCGTTCTCCGCGGAGTCACCTAGTGCAG” reads 8620 fluorescence intensity (a.u.); that for “AAATAGTTGCCGGCTCACACCCTCTGTCCTCTTCAGCTCACGGAGTCACCTAGTGCAG”, 9240 fluorescence intensity (a.u.); that for “ACACCTATCTTGTTCTTATTATACTCCCTCCGTTTCAAAACGGAGTCACCTAGTGCAG”, 11400 fluorescence intensity (a.u.). For the sequence “CTAGTTTGATTTTGTCCTGGTTTGGTCGTTGATGGTGAACCGGAGTCACCTAGTGCAG”, the binding signal is 9400 fluorescence intensity (a.u.). Next, “AGGATATATTTCTCTTTATTTTCATACTTGAACCATCTGTCGGAGTCACCTAGTGCAG”: 8980 fluorescence intensity (a.u.).

These data come from PMC7819943, “Rice protein-binding microarrays: a tool to detect cis-acting elements near promoter regions in rice”.
